Results deposited as PubChem BioAssay AID686943 (Drosophila RNAi Screening Center, 2013).
Test: 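Knockdowns that increase or decrease active ERK after insulin receptor stimulation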 (primary screen). System: Drosophila S2R+ haemocyte-like cells expressing YFP-tagged ERK (Rolled). Reagent: long dsRNA against Drosophila genes. Treatment: insulin stimulation versus unstimulated cells; dose and duration not given. Measured: 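Per-plate z-scores of phospho-ERK immunostaining normalised to YFP-tagged ERK, measured with and without insulin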. Scale: replicate 1, z-score of dpERK with insulin: higher = more active ERK per ERK-YFP after insulin.
The deposit covers about 23,000 reagents; this is a random part of those that have a named target and a result. 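Extra replicates exist only for a retested subset of genes; insulin dose and duration not given; both raised and lowered dpERK matter.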 The numbers tell different reagents against one gene apart. A plus sign joins genes that one reagent is predicted to hit. Further read-outs or replicates are left out here. Not given: the amount of reagent, the time to read-out.

Target gene	dsRNA no.	replicate 1, z-score of dpERK with insulin
CG17470	1	0.3
CG5554	1	-1.22
CG6693	1	0.55
CG7065	1	1.28
Nnk (Nicknack)	1	-0.12
CG5412	1	0.04
CG43182	1	-0.71
Ing3 (Inhibitor of growth family, member 3)	1	0.33
CG10702	1	-0.35
CG8677 + CG31626	1	2.46
ste24b (ste24b prenyl protease type I)	1	0.77
CG5255	1	0.21
CG12259	1	0.05
t-Grip84 (testis-specific gamma-tubulin ring protein 84)	1	-0.06
CG7548	1	0.87
uri (unconventional prefoldin RPB5 interactor)	1	-4.46
CG9300	1	-0.5
lectin-24A	1	-0.18
Alp11 (Alkaline phosphatase 11)	1	-0.32
CG12811	1	1.08
CG9004	1	0.7
CG44000 + CG33995 + CG44001	1	0.95
CG44000 + CG33995 + CG44001	2	-0.37

Sorted by “replicate 1, z-score of dpERK with insulin” (low to high): some entries from above
Target gene	dsRNA no.	replicate 1, z-score of dpERK with insulin
Alp11 (Alkaline phosphatase 11)	1	-0.32
CG9004	1	0.7
CG12811	1	1.08
